“And” between values parts separate entries of the source, which are not always exact repeats. Equal entries are not always repeated.
Experiment: general procedure: solution-phase peptide synthesis

| Substance | step yield (coupling step) | other results |
| --- | --- | --- |
| N-[(4S)-4-(N-Boc-Aspartyl(β-O-Benzyl)-Isoleucyl-Isoleucyl-Amino)-5-(3- indolyl) -3-hydroxypentanoyl]-Valyl Benzyl ester | 33% | – |
| N-(3 -(Methoxycarbonyl) propionyl)-Isoleucyl-Isoleucyl-Statyl-Valyl Benzyl ester | 80% | – |
| N-[(4S)-4-(N-Boc-Isoleucyl-Isoleucyl-Amino)-5-(3-indolyl)-3-hydroxypentanoyl]-Valyl Benzyl ester | 47% | – |
| N-Succinyl-Isoleucyl-Isoleucyl-Statyl-Valyl-OH | – | step yield (late stage modification step): 57% |
| N-[(4S)-4-(N-Boc-Cyclohexylalanyl-Isoleucyl-Amino)-5-(3-indolyl)-3-hydroxypentanoyl]-Valyl Benzyl ester | 30% | – |
| N-Boc-Isoleucyl-Isoleucyl-Statyl-β-Alanyl-OH | – | step yield (late stage modification step): 71% |
| N-Boc-Isoleucyl-Isoleucyl-Statyl-β-Alanyl Ethyl ester | – | step yield (coupling step, run 1): 82% and 41% |

Source: US5338726A (Abbott Laboratories, priority 1992, dated 1994)
